Measurements from article doi:10.1101/2024.12.09.627564, “Cannabinoid inhibition of mechanosensitive K^+ channels” (bioRxiv, 2024).

Assay: Patch imaging and membrane tension calculation
Parameters: species or system Xenopus laevis
Settings: 50 μM CBD; for calculated membrane tension: representative image

For C=C(C)[C@@H]1CCC(C)=C[C@H]1c1c(O)cc(CCCCC)cc1O [CBD, Cannabidiol], the “effect on membrane tension” value was “no effect on membrane tension”, the calculated membrane tension (10 mmHg) was 3.88 mN/m and the calculated membrane tension (50 mmHg) was 15.36 mN/m.
